The values below come from publication PMC12302648.

Assay [1] addresses T1, Fibroblast growth factor 13 (FGF13), endogenous in mouse primary neurons (mouse (endogenous in primary neurons)) (UniProt P70377).
T1 sequence: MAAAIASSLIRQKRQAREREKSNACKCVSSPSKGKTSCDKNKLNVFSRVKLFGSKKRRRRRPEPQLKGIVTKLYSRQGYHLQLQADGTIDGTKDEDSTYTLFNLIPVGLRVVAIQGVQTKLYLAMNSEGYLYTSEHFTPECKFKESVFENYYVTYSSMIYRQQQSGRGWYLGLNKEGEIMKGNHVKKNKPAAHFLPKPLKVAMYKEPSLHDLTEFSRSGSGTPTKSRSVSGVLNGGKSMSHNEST
Kind of assay: co-IP; primary neuron lysates incubated with anti-FGF13 or anti-MTCH2 antibodies at 4 °C overnight, Protein A/G PLUS-Agarose, western blotting; control, MPP+-treated and Abacavir-pretreated neurons.

In assay [2] the target is T2, Recombinant GST-tagged MTCH2 fusion protein (UniProt Q791V5).
T2 sequence: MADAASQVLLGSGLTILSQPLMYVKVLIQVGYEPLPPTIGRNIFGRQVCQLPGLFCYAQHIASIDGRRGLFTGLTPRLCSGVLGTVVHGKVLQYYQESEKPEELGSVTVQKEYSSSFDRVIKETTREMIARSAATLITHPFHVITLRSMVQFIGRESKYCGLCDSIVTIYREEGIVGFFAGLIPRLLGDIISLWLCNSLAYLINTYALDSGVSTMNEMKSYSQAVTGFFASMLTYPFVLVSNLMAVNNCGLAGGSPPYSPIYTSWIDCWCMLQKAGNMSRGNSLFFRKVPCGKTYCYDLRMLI
Put plainly: pull-down; glutathione-agarose beads coated with GST-MTCH2 incubated with His-FGF13 in the binding buffer at 4 °C for 12 h; western blotting with anti-His and anti-GST antibodies; both purified.

Results are given in words; binding and its absence hold for the method and conditions named. For some assays here: In cells and extracts the contact can be indirect. Some entries that bind do so weakly or less than the wild type. For some assays here: Where a sequence is shown, tags or fusion partners need not be part of it.

B1: MTCH2, endogenous in mouse primary neurons (protein, UniProt Q791V5 1-303)
chain: MADAASQVLLGSGLTILSQPLMYVKVLIQVGYEPLPPTIGRNIFGRQVCQLPGLFCYAQHIASIDGRRGLFTGLTPRLCSGVLGTVVHGKVLQYYQESEKPEELGSVTVQKEYSSSFDRVIKETTREMIARSAATLITHPFHVITLRSMVQFIGRESKYCGLCDSIVTIYREEGIVGFFAGLIPRLLGDIISLWLCNSLAYLINTYALDSGVSTMNEMKSYSQAVTGFFASMLTYPFVLVSNLMAVNNCGLAGGSPPYSPIYTSWIDCWCMLQKAGNMSRGNSLFFRKVPCGKTYCYDLRMLI
As for B1, the binding result in assay [1] is “binds”.

B2: His-FGF13 fusion protein (protein, UniProt P70377 1-245)
chain: MAAAIASSLIRQKRQAREREKSNACKCVSSPSKGKTSCDKNKLNVFSRVKLFGSKKRRRRRPEPQLKGIVTKLYSRQGYHLQLQADGTIDGTKDEDSTYTLFNLIPVGLRVVAIQGVQTKLYLAMNSEGYLYTSEHFTPECKFKESVFENYYVTYSSMIYRQQQSGRGWYLGLNKEGEIMKGNHVKKNKPAAHFLPKPLKVAMYKEPSLHDLTEFSRSGSGTPTKSRSVSGVLNGGKSMSHNEST
B2: the binding result in assay [2] is listed as “binds”.
